Measured values from patent US20250281449A1, “NITROGEN-CONTAINING ANALOGS OF SALINOMYCIN FOR USE IN MULTIPLE MYELOMA (MM)” (Centre National de la Recherche Scientifique, priority 2021, published 2025).
At least one structure is not confirmed: it was looked up by name or label, or the drawing left a doubt.

Tested on: XG-7 and OPM-2 cell line
Assay: Apoptosis with iron supplementation (FeCl3), Annexin V-PE
Type: cell-based, human
Conditions: 80 μM deferasirox or 100 nM Ironomycin, 4 hours then 72H with FeCl3 100 μM
Experimental: XG-7 and OPM-2 cell line was pre-incubated with or without 80 μM of deferasirox or 100 nM of Ironomycin, for 4 hours followed by 72H incubation in presence or absence of FeCl3 (100 μM). Apoptosis was assessed using Annexin V-PE staining by flow cytometry.
Annexin V-PE staining for apoptosis analysis was performed using the “PE Annexin V Apoptosis Detection Kit I” (559763, Becton Dickinson).

SMILES: O=C(O)c1ccc(-n2nc(-c3ccccc3O)nc2-c2ccccc2O)cc1 [Deferasirox, reference compound]
- effect of iron supplementation on induced apoptosis: significantly inhibited
